This is an account of results in article PMC11277124.

In this test the target is DDT1 (cytochrome P450 enzyme encoded by LOC_Os03g04680) (rice (Oryza sativa L.)). Kind of test: two-hybrid; DDT1 in pGBKT7 and SLR1 in pGADT7 co-transformed into yeast strain AH109; grown on -Leu/-Trp or -Leu/-Trp/-His/-Ade media for 4 days.

No constants are given. Whether binding was seen depends on the method and setting.

B1: SLR1 (protein, UniProt Q7G7J6 1-625)
chain: MKREYQEAGGSSGGGSSADMGSCKDKVMAGAAGEEEDVDELLAALGYKVRSSDMADVAQKLEQLEMAMGMGGVSAPGAADDGFVSHLATDTVHYNPSDLSSWVESMLSELNAPLPPIPPAPPAARHASTSSTVTGGGGSGFFELPAAADSSSSTYALRPISLPVVATADPSAADSARDTKRMRTGGGSTSSSSSSSSSLGGGASRGSVVEAAPPATQGAAAANAPAVPVVVVDTQEAGIRLVHALLACAEAVQQENFAAAEALVKQIPTLAASQGGAMRKVAAYFGEALARRVYRFRPADSTLLDAAFADLLHAHFYESCPYLKFAHFTANQAILEAFAGCHRVHVVDFGIKQGMQWPALLQALALRPGGPPSFRLTGVGPPQPDETDALQQVGWKLAQFAHTIRVDFQYRGLVAATLADLEPFMLQPEGEADANEEPEVIAVNSVFELHRLLAQPGALEKVLGTVHAVRPRIVTVVEQEANHNSGSFLDRFTESLHYYSTMFDSLEGGSSGQAELSPPAAGGGGGTDQVMSEVYLGRQICNVVACEGAERTERHETLGQWRNRLGRAGFEPVHLGSNAYKQASTLLALFAGGDGYRVEEKEGCLTLGWHTRPLIATSAWRVAAA
As for B1, the binding result was “no binding”.
